Data reported in patent US20080199939A1.
These are yes or no findings as the source states them, for the method shown. Some entries that bind do so weakly or less than the wild type.

Sequences of proteins named here, by UniProt entry; tags and fusion partners are left off. Residues count along the entry.
UniProt P78310, residues 20-365: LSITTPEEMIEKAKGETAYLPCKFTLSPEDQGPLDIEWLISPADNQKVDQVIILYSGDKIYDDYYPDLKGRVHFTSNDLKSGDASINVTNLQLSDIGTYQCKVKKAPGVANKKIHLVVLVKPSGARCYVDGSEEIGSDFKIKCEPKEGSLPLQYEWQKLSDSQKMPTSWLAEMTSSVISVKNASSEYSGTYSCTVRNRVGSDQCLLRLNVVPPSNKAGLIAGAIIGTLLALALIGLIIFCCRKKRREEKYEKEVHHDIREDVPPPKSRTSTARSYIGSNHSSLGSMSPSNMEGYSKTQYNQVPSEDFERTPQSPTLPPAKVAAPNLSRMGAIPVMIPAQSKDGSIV

Molecular target: Coxsackievirus and Adenovirus Receptor (CAR) (UniProt P78310)
Experiment: receptor recognition through the fiber knob; method not described, data not shown

B1: Ad5 fiber protein, on the original Ad5 based vector (protein)
chain: MKRARPSEDTFNPVYPYDTETGPPTVPFLTPPFVSPNGFQESPPGVLSLRLSEPLVTSNGMLALKMGNGLSLDEAGNLTSQNVTTVSPPLKKTKSNINLEISAPLTVTSEALTVAAAAPLMVAGNTLTMQSQAPLTVHDSKLSIATQGPLTVSEGKLALQTSGPLTTTDSSTLTITASPPLTTATGSLGIDLKEPIYTQNGKLGLKYGAPLHVTDDLNTLTVATGPGVTINNTSLQTKVTGALGFDSQGNMQLNVAGGLRIDSQNRRLILDVSYPFDAQNQLNLRLGQGPLFINSAHNLDINYNKGLYLFTASNNSKKLEVNLSTAKGLMFDATAIAINAGDGLEFGSPNAPNTNPLKTKIGHGLEFDSNKAMVPKLGTGLSFDSTGAITVGNKNNDKLTLWTTPAPSPNCRLNAEKDAKLTLVLTKCGSQILATVSVLAVKGSLAPISGTVQSAHLIIRFDENGVLLNNSFLDPEYWNFRNGDLTEGTAYTNAVGFMPNLSAYPKSHGKTAKSNIVSQVYLNGDKTKPVTLTITLNGTQETGDTTPSAYSMSFSWDWSGHNYINEIFATSSYTFSYIAQE
binding: binds
